Results are given in words; binding and its absence hold for the method and conditions named. Binding seen in cells or lysates may run through a third protein. Binding calls can cover weak binding; strength is not graded here.
Target: M1 protein on the surface of live S. pyogenes strain SF370 (S. pyogenes strain SF370 (endogenous)) (UniProt Q99XV0)
Assay: cross-linking

Sequences of proteins named here, by UniProt entry; tags and fusion partners are left off. Residues count along the entry.
UniProt P01009, residues 25-418: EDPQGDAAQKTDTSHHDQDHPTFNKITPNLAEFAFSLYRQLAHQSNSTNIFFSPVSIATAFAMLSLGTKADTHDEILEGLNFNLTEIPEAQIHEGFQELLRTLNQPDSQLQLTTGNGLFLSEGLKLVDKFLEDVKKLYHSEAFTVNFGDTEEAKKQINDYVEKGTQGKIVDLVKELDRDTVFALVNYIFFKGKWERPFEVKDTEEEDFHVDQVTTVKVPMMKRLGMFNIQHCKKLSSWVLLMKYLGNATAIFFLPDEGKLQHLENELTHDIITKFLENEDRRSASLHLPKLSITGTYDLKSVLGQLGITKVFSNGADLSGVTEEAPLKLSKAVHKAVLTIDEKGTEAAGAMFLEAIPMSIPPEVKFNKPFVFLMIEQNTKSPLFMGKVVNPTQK
UniProt P02768, residues 25-609: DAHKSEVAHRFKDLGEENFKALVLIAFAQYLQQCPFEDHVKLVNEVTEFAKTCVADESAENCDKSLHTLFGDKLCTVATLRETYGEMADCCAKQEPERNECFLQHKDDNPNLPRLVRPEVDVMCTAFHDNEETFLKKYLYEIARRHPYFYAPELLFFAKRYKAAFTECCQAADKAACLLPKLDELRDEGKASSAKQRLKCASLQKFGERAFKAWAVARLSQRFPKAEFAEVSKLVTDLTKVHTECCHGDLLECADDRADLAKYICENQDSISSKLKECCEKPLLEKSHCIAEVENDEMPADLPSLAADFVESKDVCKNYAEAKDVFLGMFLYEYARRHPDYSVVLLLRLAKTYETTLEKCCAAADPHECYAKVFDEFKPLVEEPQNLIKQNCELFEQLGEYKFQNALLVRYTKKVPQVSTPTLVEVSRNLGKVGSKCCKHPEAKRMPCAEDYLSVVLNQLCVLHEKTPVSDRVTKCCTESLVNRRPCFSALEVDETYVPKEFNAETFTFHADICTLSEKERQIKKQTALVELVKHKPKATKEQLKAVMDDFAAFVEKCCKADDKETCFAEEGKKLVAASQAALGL

Substance	binding
alpha-1-antitrypsin (from UniProt P01009 25-418)	no binding
human serum albumin (from UniProt P02768 25-609)	binds
